Experimental data taken from article PMC7819943, “Rice protein-binding microarrays: a tool to detect cis-acting elements near promoter regions in rice”.
The other results are listed elsewhere or left out.

Sequences of proteins named here, by UniProt entry; tags and fusion partners are left off.
UniProt Q0JBA9, entry or part of it: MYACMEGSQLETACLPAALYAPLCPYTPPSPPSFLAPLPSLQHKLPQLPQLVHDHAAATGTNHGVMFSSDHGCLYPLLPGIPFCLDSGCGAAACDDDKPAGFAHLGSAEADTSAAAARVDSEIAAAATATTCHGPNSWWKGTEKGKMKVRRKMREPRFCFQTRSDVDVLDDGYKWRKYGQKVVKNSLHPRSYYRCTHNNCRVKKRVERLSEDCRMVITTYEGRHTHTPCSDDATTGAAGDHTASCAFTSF

target: OsWRKY34 (Oryza sativa, UniProt Q0JBA9 1-250); test: protein-binding microarray (RPBM); PBS, 2% BSA, 51.3 ng/ul salmon testes DNA, 50 uM zinc acetate, 200 nM TF, 25 C, 1 h; high values mean tight binding; conditions: protein: recombinant; tags: N-terminal polyhistidine and DsRed monomer fusion (pET32a); label: CyDye5-dUTP incorporated in the synthesized complementary strand; 3' TTTTT single-stranded linker to array surface; dsDNA, one strand shown
Method in brief: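 A custom Agilent array was converted to double-stranded form by primer extension with Cy5-dUTP and blocked with 2% BSA. Protein at 200 nM in PBS with 2% BSA, salmon testes DNA and 50 µM zinc acetate was applied for 1 h at 25 °C, followed by washing. The proteins were polyhistidine–DsRed N-terminal fusions of transcription factors, expressed in E. coli BL21-CodonPlus and Ni–NTA-purified. The binding signal is per-feature fluorescence intensity (arbitrary units) from an Axon 4000B scanner.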

Sequence | binding signal
TCCCCAAGGATCCTATCTACAAGATCTGCTGCTTCGGCGACGGAGTCACCTAGTGCAG | 9130 fluorescence intensity (a.u.)
ACCCGACCGCCTCCATGGCTTCTTCGAGGACCACCAGACCCGGAGTCACCTAGTGCAG | 8150 fluorescence intensity (a.u.)
TACAGGGACAACCCGCGCGACATCCCGCTCAACTACGCCACGGAGTCACCTAGTGCAG | 9170 fluorescence intensity (a.u.)
CATAGCCTCGACATTACTAGCCAAGTACACCTGTTGGTCCCGGAGTCACCTAGTGCAG | 8680 fluorescence intensity (a.u.)
ACACCATTGACTTTTTAATATGTGTTTGACCATTCGTCTTCGGAGTCACCTAGTGCAG | 19200 fluorescence intensity (a.u.)
TATATGTGTGCTGTGATTTTATTTTTATTCCTCACCAAAACGGAGTCACCTAGTGCAG | 11300 fluorescence intensity (a.u.)
GCCCGAACATTCCCCATGAAACACTCTATATAATAACCGACGGAGTCACCTAGTGCAG | 9180 fluorescence intensity (a.u.)
CTATTATGTGCATTTTGTTTTTTATATGTTGCTCTTCTAACGGAGTCACCTAGTGCAG | 9450 fluorescence intensity (a.u.)
AAATTTGTTAGACAAACTCCTATTATTTGCATTATCGCCTCGGAGTCACCTAGTGCAG | 8250 fluorescence intensity (a.u.)
TCTCTTCTTTCATGTAATGAAACTGTTGCCCGTGTAATCTCGGAGTCACCTAGTGCAG | 8560 fluorescence intensity (a.u.)
GCAACTAACCGCGCGTCTTCCTCGCATCAGCCGCGTCATTCGGAGTCACCTAGTGCAG | 11300 fluorescence intensity (a.u.)
CTTTGCTTGCTTTGCCTGCCTCGCTTCGCTCGCATCACGTCGGAGTCACCTAGTGCAG | 11100 fluorescence intensity (a.u.)
TTTTATTTTTTTTATTTCACCCTATCTCTTCCTTGCGTCTCGGAGTCACCTAGTGCAG | 8150 fluorescence intensity (a.u.)
CATCATTGTACTGTTAATTAAATCATCATGGTCATTATCACGGAGTCACCTAGTGCAG | 9360 fluorescence intensity (a.u.)
CATAAAACTACATATACTTTGCACGATCTATCACAAAACTCGGAGTCACCTAGTGCAG | 8300 fluorescence intensity (a.u.)
ACCCATGCATGATCACCTTGTTGACCTAGTACTGATGATGCGGAGTCACCTAGTGCAG | 9850 fluorescence intensity (a.u.)
ACCATTCGTCCATATATTGCCACCGCTTCGTAGCTCAAGCCGGAGTCACCTAGTGCAG | 9860 fluorescence intensity (a.u.)
ACTAGACTACCAGTAACTTTTCCTTTCTTTTTATTTTTTTCGGAGTCACCTAGTGCAG | 9980 fluorescence intensity (a.u.)
ACTTGGGTATTACGTTTCCCTGTATATTATGGAACGGCCTCGGAGTCACCTAGTGCAG | 9570 fluorescence intensity (a.u.)
TGCAATTTCATTTTGGACATTTTTACTGGGGCACCAAAATCGGAGTCACCTAGTGCAG | 10300 fluorescence intensity (a.u.)
AGGCACCACCATTCCCTCCTCACCACACACACCCCAATCTCGGAGTCACCTAGTGCAG | 8040 fluorescence intensity (a.u.)

Sequence | binding signal
TTTGCTTACCTCACACTTACTGTACACACCAAACATAATACGGAGTCACCTAGTGCAG | 8350 fluorescence intensity (a.u.)
CCCATTTAAAGCCGTGCACATGGCCCGAGGTTCTCCACTCCGGAGTCACCTAGTGCAG | 8020 fluorescence intensity (a.u.)
GTGACAGCGCTCATTCTGTCGCGGATTGCCGGATTCGTTTCGGAGTCACCTAGTGCAG | 10300 fluorescence intensity (a.u.)
CACACACAAACACCTACCCTTCTCTCCCGTGAGGCTGTGACGGAGTCACCTAGTGCAG | 8510 fluorescence intensity (a.u.)
CATGCAGGAGGTTATCCGCTGTGTCTTCGCTCGCCTGCCTCGGAGTCACCTAGTGCAG | 9720 fluorescence intensity (a.u.)
TTCAATCCCTTCACCGCCTTACAATTTTAACGTTACACCGCGGAGTCACCTAGTGCAG | 8370 fluorescence intensity (a.u.)
GAGTACTCCACTGCTACTATCTTTGTCCTGCAGCAATCTCCGGAGTCACCTAGTGCAG | 15000 fluorescence intensity (a.u.)
TGCACTTCTTTTTTTTTTGTCGGGGTATGAATCGCTACCACGGAGTCACCTAGTGCAG | 9880 fluorescence intensity (a.u.)
ACACTGAAACCTAACACCAGCTGGTGCGTTTCATTTCAAACGGAGTCACCTAGTGCAG | 8140 fluorescence intensity (a.u.)
CGGGGTGGGAGCAGGGGTCGCGCGGCGGGGTGCGGCCATGCGGAGTCACCTAGTGCAG | 10100 fluorescence intensity (a.u.)
GGTATGGTCAGTCTCATCAGTGCCCATCTCCTCTCGCTACCGGAGTCACCTAGTGCAG | 8230 fluorescence intensity (a.u.)
CAAGGTTTACTAATGTTTTGCCTCTTGTTTTCCGTTTGTACGGAGTCACCTAGTGCAG | 9310 fluorescence intensity (a.u.)
GGGTTCTGGGGCAGGGAGCTCATCCTCCCGGTCGACGGCGCGGAGTCACCTAGTGCAG | 8550 fluorescence intensity (a.u.)
TTTGCTTCCAGCTTCTTGGGATTGCTCTGTTTCTTGCTGACGGAGTCACCTAGTGCAG | 8590 fluorescence intensity (a.u.)
CCATTTCCCGCACTGCAATTCCCACACTTGCACGCACACACGGAGTCACCTAGTGCAG | 10600 fluorescence intensity (a.u.)
ATGGGCATTGACTTCCACGCCCACCTTGTTGCCTCCGCTGCGGAGTCACCTAGTGCAG | 8750 fluorescence intensity (a.u.)
CGTGATCCAAGTATCCAACACTACAGCGCATGGTCTGTTCCGGAGTCACCTAGTGCAG | 9880 fluorescence intensity (a.u.)
TTCTTGGACCACCCAGTTATCTGCCTTTTTTTATTTTTTTCGGAGTCACCTAGTGCAG | 8930 fluorescence intensity (a.u.)
GCACCACGATACACGTGCATCTACTCCTAGTCCTACTGCTCGGAGTCACCTAGTGCAG | 9180 fluorescence intensity (a.u.)
TGAGAGTCCCTCATTTTTTATCTAGCGTAACATGTTCTTCCGGAGTCACCTAGTGCAG | 8120 fluorescence intensity (a.u.)
TTCTAAAAAAAAACTTTGTTCTTGTTTGGGCCTCTCGCGACGGAGTCACCTAGTGCAG | 8180 fluorescence intensity (a.u.)

A different layout for some results above:
Sequence	binding signal
ACACTGAAACCTAACACCAGCTGGTGCGTTTCATTTCAAACGGAGTCACCTAGTGCAG	8140 fluorescence intensity (a.u.)
CGGGGTGGGAGCAGGGGTCGCGCGGCGGGGTGCGGCCATGCGGAGTCACCTAGTGCAG	10100 fluorescence intensity (a.u.)
